Patent US4260607A, “Cephalosporin esters” (Takeda Chemical Industries, Ltd., priority 1976, dated 1981)

Experiment: in vivo
Details: rat, po, 100 mg/kg

CC1=C(C(=O)O)N2C(=O)[C@@H](NC(=O)[C@H](N)c3ccccc3)[C@H]2SC1 [Cephalexin, reference compound] gave a concentration at 0.5 h of 26300 ng/mL, a concentration at 1 h of 28900 ng/mL and a concentration at 2 h of 16300 ng/mL. The concentration at 4 h was 7900 ng/mL.
